Literature values, collected in US4210638A, “Antiviral composition and method of treating virus diseases” (PCR, Inc., priority 1978, dated 1980).
At least one structure is not confirmed: it was looked up by name or label, or the drawing left a doubt.

Test system: Herpes simplex
Settings: cited from earlier work

Structure (SMILES): CNc1cn([C@H]2C[C@H](O)[C@@H](CO)O2)c(=O)[nH]c1=O [5-methyl amino-2'-deoxyuridine]
- antiviral activity against Herpes simplex in cell culture: do exhibit antiviral activity
